# Experimental data reported in PubChem BioAssay AID651640 (Broad Institute, 2012).
# Several values for one entry are separate records, joined by “and”; a condition that tells them apart may be missing. Equal values may be shown once. Among all 350,000 compounds or so, about 6,000 (1.7%) were called active. The inconclusive results got no clear call from the source; some entries with a clear call stand among them for comparison. No stated cut-off is given here; in the data, active means CPE inhibition above about 20% (passing the limit was not always enough); inconclusive means no clear call, values can overlap the other calls; tested in BHK-21 cells.
# Assay: protection of cells from dengue 2 killing – plate reader, single concentration, primary screen (AID 651640);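 further: 0% = median of neutral control wells and 100% = median of positive control wells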
# Details: DENV2-infected cells, cytopathic effect rescue, at 9.99 µM, hits give high values
row,Compound,CPE inhibition
1,COc1ccc(CNC(=O)[C@@H](NC(=O)C2CCN(C(=O)[C@@H](N)CCSC)CC2)C(C)C)cc1,inconclusive: 32.4%
2,COCCNC(=O)C1CC(c2ccc(C(F)(F)F)cc2)=NO1 (stereo unspecified),inconclusive: 31.7%
3,CN(C)CCN(C(=O)c1ccc(Br)s1)c1nc2cc3c(cc2s1)OCCO3,inactive: 8.92%
4,C[C@H]1CN([C@@H](C)CO)C(=O)c2cc(-c3ccc(C#N)cc3)cnc2O[C@H]1CN(C)Cc1ccccn1,inconclusive: 23.2%
5,CO[C@@H]1CN(C)C(=O)c2cc(NC(=O)Nc3c(C)noc3C)ccc2OC[C@H](C)N(CC2CC2)C[C@H]1C,inactive: 0.766%
6,CN1C(=O)N[C@@H]2c3ccccc3O[C@@]1(C)[C@@H]2COC(=O)c1ccc([N+](=O)[O-])cc1,active: 38.3%
7,COc1ccccc1CNC(=O)C[C@@H]1C[C@@H]2c3cc(NS(C)(=O)=O)ccc3O[C@@H]2[C@@H](CO)O1,inactive: -4.83%
8,COc1ccc(-c2cc(NC=O)c3ncc(-c4cc(OC)c(OC)c(OC)c4)n3c2)c(OC)c1,active: 42.3%
9,CC[C@@]1(C(=O)OC)N[C@H](CN(C)C(=O)COC)[C@@H]2C(=O)N(C)C(=O)[C@@H]21,inconclusive: 45.5%
10,O=C(CN1CCCCCC1)Nc1ccc(Oc2ccccc2)cc1,inactive: 11.4%
11,CO[C@H]1CN(C)C(=O)c2cc(NC(=O)c3ccccc3F)ccc2OC[C@@H](C)N(CC2CC2)C[C@H]1C,inconclusive: 20.7%
12,CC(C)CC#Cc1ccc2c(c1)O[C@H](CN(C)C)[C@H](C)CN([C@@H](C)CO)S2(=O)=O,inactive: 14.9%
13,COCC#Cc1ccc([C@@H]2[C@@H](CO)N3CCCCN(C(=O)COC)C[C@H]23)cc1,active: 33.9%
14,C[C@H](CO)N1C[C@H](C)[C@H](CN(C)C(=O)Nc2ccc(F)cc2)Oc2ccc(NC(=O)CCC(F)(F)F)cc2CC1=O,active: 25.3%
15,N#C[C@H]1[C@H](c2ccc(C#Cc3ccccc3F)cc2)[C@H](CO)N1C(=O)C1CCCC1,inconclusive: 20.1%
16,O=C(Nc1ccccc1F)N1C[C@H]2[C@@H](c3ccccc31)[C@@H](CO)N2C(=O)C1CCCCC1,active: 60.9%
17,C[C@@H]1CN([C@@H](C)CO)C(=O)c2cccc(NC(=O)Nc3ccccc3)c2O[C@@H]1CN(C)C,inactive: -6.02%
18,Cc1cc2oc3cc(NCCC4CCCN4C)ccc3c(=O)c2cc1C (stereo unspecified),inconclusive: 25.3%
19,COc1ccc2c3c([nH]c2c1)[C@@H](CO)N(C(=O)NC(C)C)CC31CCN(C(=O)c2cccnc2)CC1,inactive: -6.98%
20,O=C(c1ccccc1)c1ccc(OCCOCCN2CCN(Cc3ccccc3)CC2)cc1,inactive: -3.12%
21,N=c1oc2cc(O)ccc2cc1C(=O)Nc1ccc(Cl)cc1,inactive: 1.08%
22,COc1ccc(-c2ccc3n(c2=O)C[C@H]2[C@H](CO)[C@@H](C(=O)N4CCN(C)CC4)N[C@@H]32)cc1,inconclusive: 32.7%
23,COc1ccc(S(=O)(=O)N2CCN(C(=S)Nc3ccc(S(N)(=O)=O)cc3)CC2)cc1,inconclusive: 52.5%

row,Compound,CPE inhibition
1,O=C(CSc1nnc(NC(=O)C2CC2)s1)NCc1ccco1,inconclusive: 50.2%
2,Cc1ccc(CNC(=O)C2(C)CCN2C(=O)Cc2ccc(C(C)(C)C)cc2)cc1 (stereo unspecified),inconclusive: 46.6%
3,O=C(c1cccc(Cl)c1)N1CCN(c2ncccn2)CC1,inconclusive: 33.3%
4,COc1ccc(C(=O)NCC2(N3CCCCC3)CCCCC2)cc1S(=O)(=O)N(C)C,inconclusive: 21.6%
5,COc1ccc2c3c([nH]c2c1)[C@H](CO)N(C(=O)c1ccccc1)CC31CN(C)C1,inconclusive: 51.4%
6,O=C(c1cccnc1)N1CC2(C1)[C@H](c1ccccc1)[C@@H](CO)N2Cc1ccccc1,active: 108%
7,COCCN(C(=O)c1c(C)noc1C)c1c(N)n(CC(C)C)c(=O)[nH]c1=O,inconclusive: 23.8%
8,COc1ccc(OCCNC(=O)C(Cc2c[nH]c3ccccc23)NC(C)=O)cc1 (stereo unspecified),inactive: 5.03%
9,COCC(=O)N1C[C@H]2CON(C)[C@H]2C[C@H]1c1cccc(-c2ccccc2)c1,active: 34.1%
10,C/C=C/c1ccc2c(c1)O[C@@H](CN(C)C(=O)c1cccc(F)c1)[C@@H](C)CN([C@@H](C)CO)S2(=O)=O,inconclusive: 27%
11,CCOC(=O)N(C)C[C@H]1OCc2cnnn2CCCC(=O)N([C@H](C)CO)C[C@H]1C,inactive: 1.43% and inactive: 17.1% and inactive: -6.16%
12,O=C(C[C@@H]1CC[C@H]2[C@@H](COC[C@H](O)CN2Cc2cccc(C(F)(F)F)c2)O1)NCc1ccccc1,inactive: -4.93%
13,CC(Sc1nc(-c2ccccc2)cc(C(F)(F)F)n1)C(=O)Nc1sc2c(c1C#N)CCC2 (stereo unspecified),inconclusive: 27.5%
14,Cc1cccn2c(=O)c3cc(C#N)c(=NC(=O)c4cccs4)n(CC(C)C)c3nc12,inactive: -0.682%
15,O=C(NCCCc1ccc(F)cc1)C1CCC(=O)N(CC2CCCCC2)C1 (stereo unspecified),inconclusive: 40.3%
16,COC(=O)c1cc2c(ccn2-c2ccc(F)cc2)n1Cc1ccc(OC(C)=O)cc1,inconclusive: 47.4%
17,C[C@@H]1CN([C@@H](C)CO)C(=O)c2cc(NC(=O)c3ccncc3)ccc2O[C@H]1CN(C)S(=O)(=O)c1cccs1,inconclusive: 28.5%
18,CCCCNC(=O)c1ccc2nc(-c3ccco3)c(-c3ccco3)nc2c1,inconclusive: 54.5%
19,C[C@H](CO)N1C[C@H](C)[C@@H](CN(C)C(=O)CCCN(C)C)OCCCC[C@H](C)Oc2ccc(NS(=O)(=O)c3cn(C)cn3)cc2C1=O,inactive: -8.38%
20,Nc1ccc(C(=O)N/N=C/c2cn(Cc3ccc(F)cc3)c3ccccc23)cc1,inconclusive: 61.4%
21,CCNS(=O)(=O)c1ccc(Br)c(C(=O)OC(C)C(=O)NCC2CCCCC2)c1 (stereo unspecified),active: 43%
22,O=C(NCC(F)(F)F)[C@@H]1[C@@H](CO)[C@@H]2Cn3c(cccc3=O)[C@@H]2N1Cc1cccc(F)c1,inconclusive: 20.4%
23,CC(C)NC(=O)N(C)C[C@H]1Oc2ccc(NS(=O)(=O)c3ccc(Cl)cc3)cc2CC(=O)N([C@@H](C)CO)C[C@H]1C,inconclusive: 27.5%

# In another format: results already given.
row	Compound	CPE inhibition
11	CO[C@H]1CN(C)C(=O)c2cc(NC(=O)c3ccccc3F)ccc2OC[C@@H](C)N(CC2CC2)C[C@H]1C	inconclusive: 20.7%
12	CC(C)CC#Cc1ccc2c(c1)O[C@H](CN(C)C)[C@H](C)CN([C@@H](C)CO)S2(=O)=O	inactive: 14.9%
